Test results published in publication PMC11237139.
These are yes or no findings as the source states them, for the method shown. In cells and extracts the contact can be indirect. Some results given as binding are weak or reduced against the parent protein; the word gives no strength.

The chains behind the UniProt entries cited, without tags or fusion partners. Residues count along the entry.
UniProt P36898, residues 14-502: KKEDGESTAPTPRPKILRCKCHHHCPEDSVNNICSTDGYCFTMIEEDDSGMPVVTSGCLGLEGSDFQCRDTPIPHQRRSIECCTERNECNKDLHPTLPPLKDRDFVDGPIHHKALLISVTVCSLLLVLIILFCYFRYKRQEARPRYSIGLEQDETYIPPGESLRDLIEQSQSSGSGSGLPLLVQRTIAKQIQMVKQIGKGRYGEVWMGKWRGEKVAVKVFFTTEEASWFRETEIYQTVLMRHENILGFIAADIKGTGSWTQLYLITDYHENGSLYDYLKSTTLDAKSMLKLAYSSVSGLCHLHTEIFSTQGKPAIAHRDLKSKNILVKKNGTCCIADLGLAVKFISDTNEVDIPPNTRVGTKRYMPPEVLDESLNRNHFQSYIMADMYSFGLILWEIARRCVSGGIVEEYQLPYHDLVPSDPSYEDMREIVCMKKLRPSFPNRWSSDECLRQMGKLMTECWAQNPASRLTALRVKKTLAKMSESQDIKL

Biological target: BMPR1B, endogenous in mouse brain (V-SVZ) (mouse (endogenous in mouse brain sections)) (UniProt P36898)
Experiment: proximity ligation; Duolink in situ PLA on brain sections of 15-week-old Lrig1 WT and KO mice with anti-LRIG1 and anti-BMPR-1B antibodies; KO sections and WT sections without primary antibodies as controls

binding: binds
B1: LRIG1, endogenous in mouse brain (V-SVZ) (protein, UniProt P70193 35-1091)
chain: AQAGPRAPCAAACTCAGDSLDCSGRGLATLPRDLPSWTRSLNLSYNRLSEIDSAAFEDLTNLQEVYLNSNELTAIPSLGAASIGVVSLFLQHNKILSVDGSQLKSYLSLEVLDLSSNNITEIRSSCFPNGLRIRELNLASNRISILESGAFDGLSRSLLTLRLSKNRITQLPVKAFKLPRLTQLDLNRNRIRLIEGLTFQGLDSLEVLRLQRNNISRLTDGAFWGLSKMHVLHLEYNSLVEVNSGSLYGLTALHQLHLSNNSISRIQRDGWSFCQKLHELILSFNNLTRLDEESLAELSSLSILRLSHNAISHIAEGAFKGLKSLRVLDLDHNEISGTIEDTSGAFTGLDNLSKLTLFGNKIKSVAKRAFSGLESLEHLNLGENAIRSVQFDAFAKMKNLKELYISSESFLCDCQLKWLPPWLMGRMLQAFVTATCAHPESLKGQSIFSVLPDSFVCDDFPKPQIITQPETTMAVVGKDIRFTCSAASSSSSPMTFAWKKDNEVLANADMENFAHVRAQDGEVMEYTTILHLRHVTFGHEGRYQCIITNHFGSTYSHKARLTVNVLPSFTKIPHDIAIRTGTTARLECAATGHPNPQIAWQKDGGTDFPAARERRMHVMPDDDVFFITDVKIDDMGVYSCTAQNSAGSVSANATLTVLETPSLAVPLEDRVVTVGETVAFQCKATGSPTPRITWLKGGRPLSLTERHHFTPGNQLLVVQNVMIDDAGRYTCEMSNPLGTERAHSQLSILPTPGCRKDGTTVGIFTIAVVCSIVLTSLVWVCIIYQTRKKSEEYSVTNTDETIVPPDVPSYLSSQGTLSDRQETVVRTEGGHQANGHIESNGVCLRDPSLFPEVDIHSTTCRQPKLCVGYTREPWKVTEKADRTAAPHTTAHSGSAVCSDCSTDTAYHPQPVPRDSGQPGTASSQELRQHDREYSPHHPYSGTADGSHTLSGGSLYPSNHDRILPSLKNKAASADGNGDSSWTLAKLHEADCIDLKPSPTLASGSPELMEDAISTEAQHLLVSNGHLPKACDSSPESVPLKGQITGKRRGPLLLAPRS
